PubChem BioAssay AID1259254 | NCATS – 2017

Test: 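Genome-wide screen for genes that prevent DNA re-replication in cancer cells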 (primary screen)
Cells: human HCT116 colorectal cancer cells
Knock-down reagent: single siRNA against human genes
Duration: 3 days
Read-out: 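Imaged Hoechst DNA stain sorts each cell into a cycle phase by DNA amount; per plate, G2 fraction set to 0% for non-targeting and 100% for GMNN siRNA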
Scale: G2 robust z-score: higher = more G2 cells, more excess DNA replication
Hit rule: 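Active siRNAs have a G2 robust z of 5 or more median absolute deviations over the median, which in these data means about 38% or higher of GMNN control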
Shown is one part, drawn at random, of about 59,000 reagents tested. About 1,550 of all reagents (2.6%) count as active. 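G2 share is only a proxy for re-replication; each gene was hit by three separate siRNAs, and active genes were retested.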 The numbers tell different reagents against one gene apart. Not all columns of the deposit are shown. No sequences are given here. Not given: the amount of reagent.

Against CYP17A1 (GeneID 1586) #1, the entry reads G2 robust z-score 0.876; inactive.
CYP17A1 (GeneID 1586) #2 gave G2 robust z-score -0.176; inactive.
Knock-down of CYP17A1 (GeneID 1586) #3 came out at: G2 robust z-score 1.03; inactive.
For TMEM130 (GeneID 222865) #1, the values are G2 robust z-score -0.654; inactive.
Against TMEM130 (GeneID 222865) #2 the deposit lists G2 robust z-score -0.434; inactive.
After knock-down of TMEM130 (GeneID 222865) #3 the results were G2 robust z-score 1.43; inactive.
With knock-down of CADPS (GeneID 8618) #1 the results were G2 robust z-score -0.22; inactive.
With knock-down of CADPS (GeneID 8618) #2, the screen gave G2 robust z-score -0.872; inactive.
With knock-down of CADPS (GeneID 8618) #3 the results were G2 robust z-score -0.0344; inactive.
Silencing of DOC2A (GeneID 8448) #1 came out at: G2 robust z-score -0.661; inactive.
DOC2A (GeneID 8448) #2 gave G2 robust z-score 1.14; inactive.
DOC2A (GeneID 8448) #3 scored G2 robust z-score 0.744; inactive.
SRC (GeneID 6714) #1 gave G2 robust z-score -1.07; inactive.
With knock-down of SRC (GeneID 6714) #2, the screen gave G2 robust z-score 4.77; inactive.
With knock-down of SRC (GeneID 6714) #3, the record shows G2 robust z-score 0.394; inactive.
For GOLGA6B (GeneID 55889) #1, the values are G2 robust z-score 0.333; inactive.
For GOLGA6B (GeneID 55889) #2, the values are G2 robust z-score -1.46; inactive.
With knock-down of GOLGA6B (GeneID 55889) #3 the results were G2 robust z-score -0.627; inactive.
